# Data: PubChem BioAssay AID743266 (National Center for Advancing Translational Sciences (NCATS), 2014)
# Sequences of proteins named here, by UniProt entry; tags and fusion partners are left off. A change or cut given only in a name is not applied to a line headed by its entry.
# UniProt Q03431: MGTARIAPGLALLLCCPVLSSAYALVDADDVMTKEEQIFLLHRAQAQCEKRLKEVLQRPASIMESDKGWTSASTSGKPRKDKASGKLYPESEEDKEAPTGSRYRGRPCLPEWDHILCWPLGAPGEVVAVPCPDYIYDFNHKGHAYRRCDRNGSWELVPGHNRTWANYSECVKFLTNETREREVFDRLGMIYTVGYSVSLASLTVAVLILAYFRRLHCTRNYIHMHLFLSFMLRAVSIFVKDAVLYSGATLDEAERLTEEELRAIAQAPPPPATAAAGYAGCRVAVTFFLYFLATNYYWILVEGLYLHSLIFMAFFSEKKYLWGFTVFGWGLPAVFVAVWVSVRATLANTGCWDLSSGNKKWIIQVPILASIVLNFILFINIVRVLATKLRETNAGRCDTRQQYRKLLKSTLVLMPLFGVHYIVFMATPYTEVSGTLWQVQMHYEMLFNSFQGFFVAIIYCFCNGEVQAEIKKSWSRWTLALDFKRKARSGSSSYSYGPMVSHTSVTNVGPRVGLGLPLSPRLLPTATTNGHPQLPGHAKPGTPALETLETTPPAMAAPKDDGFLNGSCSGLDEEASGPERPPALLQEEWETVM
# Among all 410,000 compounds or so, about 310 (0.076%) were called active. This list was built around the results that the source calls inconclusive (neither active nor inactive); the mix of calls is not that of the screen. Calls follow the shape of the dose curve; as a rule, active = well fitted activation curve with a large enough effect; inconclusive = small, poorly fitted or top-dose-only effect, or another doubt; inactive = no such curve, though single readings can be large or run the other way. Potencies of inconclusive entries are doubtful fits and often do not repeat.
# Target: Parathyroid hormone/parathyroid hormone-related peptide receptor (Homo sapiens) (UniProt Q03431)
# Assay: qHTS for PTHR1 Agonists: Primary Screen; also: nearly all actives have a fitted effect of over 55% in size
# Conditions: HEK293 GP2 PTHR1 cells, GloSensor cAMP luminescence, 1 h; activation: at 115 µM (top of the series) unless noted; series mostly up to 115 µM
# Description: The goal of the proposed studies is to discover new compounds that act as potent agonists on the parathyroid hormone receptor type-1 (PTHR1). The PTHR1 plays critical roles in maintaining blood calcium and phosphate levels, as well as in controlling bone remodeling. PTHR1 agonists could thus be useful for treating diseases such as hypoparathyroidism and osteoporosis. In the former disease, an agonist drug would help maintain normal blood calcium and phosphate levels under conditions of parathyroid hormone deficiency. In the latter disease, an agonist drug would stimulate new bone formation and thus reduce the risk of fracture, under conditions of bone fragility, as occurs in aging.
# To that end, we performed a quantitative high-throughput screening (qHTS) of the Molecular Libraries Probe Centers Network (MLPCN) compound libraries at the NIH Chemical Genomics Center (NCGC) for the parathyroid hormone receptor type-1 (PTHR1) using a unique HEK-293-derived cell line (GP2) that expresses the PTHR1 and a glosensor cAMP reporter construct.
# NIH Molecular Libraries Probe Production Centers Network [MLPCN]
# NIH Chemical Genomics Center [NCGC]
# Assay Submitter (PI): Thomas Gardella, Massachusetts General Hospital
# 4 microL are dispensed into a 1536-well micro plate to yield 3,000 cells/well. The plates are then incubated overnight, after which 4 microL of 0.5 mM of BIoTium Luciferin plus 0.5 mM IBMX are added. They are then incubated at 37 degree for one hour before 23 nL of compounds are added through pinning and then incubated at 37 degree again for another hour. After the plates are kept at room temperature for 15 min before they are read on the ViewLux to measure luminescence.
# Potency is read from the fitted curve at half-maximal effect.
SMILES,Potency,activation,outcome
CC(Oc1ccc(Cl)cc1Cl)C(=O)OCn1nnc2ccccc2c1=O (centres undefined),"inconclusive: 35.5 µM [activator, single point]",,
CC(C)C(=O)C1=Cc2cccc([N+](=O)[O-])c2OC1N1CCOCC1 (centres undefined),,inactive: -9.74%,
CCN(C(=O)c1ccnc(C(C)(C)C)c1)c1ccccc1,"inconclusive: 28.2 µM [activator, partial curve, poor fit]",,
CCCN1CNC(=S)N(c2cc(C)ccc2C)C1,"inconclusive: 17.8 µM [activator, partial curve, poor fit]",,
Cc1c(F)cccc1NC(=O)C1CCCN1S(=O)(=O)c1ccc(F)cc1 (centres undefined),,,inactive
CCN(CC)c1nc(Nc2ccccc2)nc(Oc2ccc(=O)n(C)n2)n1,"inconclusive: 44.7 µM [activator, single point]",,
C#CCOCCOCCOCCNc1nc(N2CCN(C(=O)CCCCCCCCCCNC(=O)[C@H]([C@@H](C)CC)n3cc(CCCCCN)nn3)CC2)nc(N2CCN(C(=O)CCCCCCCCCCNC(=O)[C@H](CCCCN)n3cc(CCCC(=O)O)nn3)CC2)n1,,inactive: 0.302%,
O=S(=O)(c1ccc(F)cc1)N1CCC(n2cnc3ccccc32)CC1,,inactive: -62%,
COC(=O)C1=C(C)N=C2SC(C)C(=O)N2C1c1ccc(C(=O)OC)cc1 (centres undefined),"inconclusive: 35.5 µM [activator, single point]",,
CCCN(CC(=O)Nc1ccc(Cl)cc1Cl)C(=O)c1ccc(=O)[nH]c1,,inconclusive: 40.8% [activator],
COCCCN1C(=O)C(=O)/C(=C(/O)c2ccc(C)cc2)C1c1ccccc1 (centres undefined),"inconclusive: 15.8 µM [activator, partial curve]",,
COc1ccc2nc(N(CCN(C)C)C(=O)/C=C/c3cccs3)sc2c1,,,inactive
CCN(CC)S(=O)(=O)c1ccc2nc(CSc3nnnn3-c3ccc(O)cc3)[nH]c2c1,"inconclusive: 39.8 µM [activator, single point]",,
COc1ccc(C(=O)N2CCN(c3ncccn3)CC2)cc1,"inconclusive: 1.93 µM [activator, full curve]",,
C=COC(=O)CSc1snc(SCC(=O)OC)c1C#N,"inconclusive: 39.8 µM [activator, single point]",,
O=C(O)/C=C/C(=O)N1CCN(c2ccccc2F)CC1,,inactive: -19.9%,
Cc1ccc(-n2ncc3c(=O)[nH]c(SCC(=O)NCC4CCCO4)nc32)cc1 (centres undefined),"inconclusive: 126 µM [activator, single point]",,
Cc1c(Cl)cccc1-c1ccc(C(=O)N2CCN(c3ccc([N+](=O)[O-])cc3)CC2)o1,,inactive: -29.9% [at 57.5 µM],
O=C(CCc1ccccc1)NCCC1=CCCCC1,"inconclusive: 44.7 µM [activator, partial curve]",,
O=C1/C(=C\c2cc([N+](=O)[O-])ccc2O)SC(=S)N1Cc1ccc(Cl)cc1,,inactive: -46.5%,
Cc1ccc(S(=O)(=O)/N=C(/Nc2ccc([N+](=O)[O-])cc2)c2ccccc2)cc1,,inconclusive: -45% [activator],
Cc1cccc(NC(=S)NCCN(C2CCCCC2)C2CCCC2)c1,"inconclusive: 126 µM [activator, single point]",,

# Quoted from the listing.
# For Potency, CCN(CC)c1nc(Nc2ccccc2)nc(Oc2ccc(=O)n(C)n2)n1 reads inconclusive: 44.7 µM [activator, single point]
# For outcome, COc1ccc2nc(N(CCN(C)C)C(=O)/C=C/c3cccs3)sc2c1 reads inactive

# Continued:

SMILES,Potency,activation,outcome
CCOC(=O)c1c(NC(=O)CCCOc2ccc(C(C)(C)C)cc2)sc2c1CCC2,,inconclusive: 31% [activator],
C/C(=N\NC(=O)c1cc(C)nc2ccccc12)c1ccccn1,,inactive: -95.9%,
O=C(NCCc1cccc(Cl)c1)c1ccc(OC2CCN(Cc3ccccn3)CC2)cc1,,inconclusive: -94.9% [activator],
CCc1ccc(C(=O)c2cn(CC(=O)Nc3ccc(OC)cc3OC)c3ccc(CC)cc3c2=O)cc1,"inconclusive: 11.2 µM [activator, partial curve, poor fit]",,
COc1ccc(OC)c(CNC(=O)Cc2ccc(NC(=O)N3CCCCc4ccccc43)cc2)c1,,inactive: -9.33%,
Cc1ccc(-c2noc(-c3nnn(CC(=O)Nc4cc(C)cc(C)c4)c3N)n2)cc1,,inactive: -10.6%,
COc1ccc(-c2nn(-c3ccccc3)cc2/C=N/O)cc1,"inconclusive: 1.72 µM [activator, full curve]",,
C[C@H](CCC(=O)OCc1cn(CC(=O)c2ccc(O)cc2)nn1)C1CC[C@H]2[C@@H]3CC[C@@H]4C[C@H](O)CC[C@]4(C)[C@H]3C[C@H](O)[C@]12C (some centres undefined),,inactive: -19.8%,
COc1cccc(C2C(C(=O)Nc3ccc(C)cc3C)=C(C)Nc3c(C(=O)Nc4cccc(C)c4)cnn32)c1OC (centres undefined),,,inactive
COc1ccc(N(CC(=O)Nc2ccccc2Cl)S(=O)(=O)c2ccc(C)cc2)cc1OC,"inconclusive: 112 µM [activator, single point]",,
Cc1cccc(N=Nc2ccc(O)c3ncccc23)c1,,,inactive
CCOC(=O)c1cnc(SCC(C)C)nc1N,,inactive: -11.3%,
Cc1ccc2c(CC(=O)NCc3ccc4c(c3)OCO4)coc2c1,"inconclusive: 2.82 µM [activator, partial curve]",,
Cc1ccc(C(=O)N2CCN(C3CCCCC3)CC2)s1,"inconclusive: 39.8 µM [activator, single point]",,
COc1ccc(-c2csc(NC(=O)C3CCN(c4ncnc5sc(C)c(C)c45)CC3)n2)cc1OC,,inactive: -30.2%,
Cc1occc1C(=O)N/N=C/C1=C(N2CCOCC2)C(=C\c2ccc(Cl)cc2)/CC1,"inconclusive: 28.2 µM [activator, partial curve, poor fit]",,
COC(=O)Cc1cc(=O)[nH]c(/N=C(\N)Nc2ccccc2C)n1,,inconclusive: 37.3% [activator],
Cc1cc(C)cc(NC(=O)CSc2nc(-c3cccc(Cl)c3)nc3c2Cc2c(CO)cnc(C)c2O3)c1,"inconclusive: 112 µM [activator, single point]",,
COc1cnn(Cc2ccccc2)c(=O)c1SCc1ccccc1,"inconclusive: 15.8 µM [activator, partial curve]",,
COc1ccc(-c2oc3ccccc3c2C#CC(C)(C)O)cc1,,,inactive
O=C(CCN1C(=O)C2CC=CCC2C1=O)Nc1nc(-c2ccc(F)c(F)c2)cs1 (centres undefined),,inconclusive: -94.8% [activator],
CCN(CC)C(=O)c1c(-c2ccccc2)c(-c2ccccc2)nn(C)c1=O,,,inactive
